The list shows a part of the results.

The chains behind the UniProt entries cited, without tags or fusion partners. Where a name states a change or a piece, a line headed by the entry shows the natural chain unless it says otherwise.
UniProt Q9Y2K7: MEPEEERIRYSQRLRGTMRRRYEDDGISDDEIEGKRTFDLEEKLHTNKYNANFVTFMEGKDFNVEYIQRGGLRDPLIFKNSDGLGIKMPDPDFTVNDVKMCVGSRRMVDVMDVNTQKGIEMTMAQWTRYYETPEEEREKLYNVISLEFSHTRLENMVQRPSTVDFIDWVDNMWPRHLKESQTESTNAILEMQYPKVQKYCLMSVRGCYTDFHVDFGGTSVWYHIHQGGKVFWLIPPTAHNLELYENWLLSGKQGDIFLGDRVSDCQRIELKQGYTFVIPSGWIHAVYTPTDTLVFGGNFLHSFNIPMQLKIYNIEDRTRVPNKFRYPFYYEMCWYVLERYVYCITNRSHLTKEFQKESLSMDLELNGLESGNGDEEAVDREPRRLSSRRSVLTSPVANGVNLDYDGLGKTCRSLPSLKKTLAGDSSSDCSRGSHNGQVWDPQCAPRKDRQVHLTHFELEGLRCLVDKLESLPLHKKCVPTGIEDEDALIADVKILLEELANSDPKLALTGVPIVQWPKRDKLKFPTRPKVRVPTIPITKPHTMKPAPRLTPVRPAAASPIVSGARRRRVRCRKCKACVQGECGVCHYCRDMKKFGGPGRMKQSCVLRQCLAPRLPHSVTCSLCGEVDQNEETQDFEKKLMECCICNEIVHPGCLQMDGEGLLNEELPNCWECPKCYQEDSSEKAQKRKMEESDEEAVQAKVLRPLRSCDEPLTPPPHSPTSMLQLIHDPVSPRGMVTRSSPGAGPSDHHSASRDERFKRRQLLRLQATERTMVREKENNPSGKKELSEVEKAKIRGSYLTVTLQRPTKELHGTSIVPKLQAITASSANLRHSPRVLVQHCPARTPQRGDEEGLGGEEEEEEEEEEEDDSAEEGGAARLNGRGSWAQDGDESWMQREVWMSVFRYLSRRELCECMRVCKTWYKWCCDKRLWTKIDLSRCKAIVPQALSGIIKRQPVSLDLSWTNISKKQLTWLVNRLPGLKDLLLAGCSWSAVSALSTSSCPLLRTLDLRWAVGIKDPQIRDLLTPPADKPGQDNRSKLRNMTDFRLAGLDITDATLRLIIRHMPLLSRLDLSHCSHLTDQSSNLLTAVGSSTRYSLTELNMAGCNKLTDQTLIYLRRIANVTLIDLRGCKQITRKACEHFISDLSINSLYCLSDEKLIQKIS
UniProt P29375: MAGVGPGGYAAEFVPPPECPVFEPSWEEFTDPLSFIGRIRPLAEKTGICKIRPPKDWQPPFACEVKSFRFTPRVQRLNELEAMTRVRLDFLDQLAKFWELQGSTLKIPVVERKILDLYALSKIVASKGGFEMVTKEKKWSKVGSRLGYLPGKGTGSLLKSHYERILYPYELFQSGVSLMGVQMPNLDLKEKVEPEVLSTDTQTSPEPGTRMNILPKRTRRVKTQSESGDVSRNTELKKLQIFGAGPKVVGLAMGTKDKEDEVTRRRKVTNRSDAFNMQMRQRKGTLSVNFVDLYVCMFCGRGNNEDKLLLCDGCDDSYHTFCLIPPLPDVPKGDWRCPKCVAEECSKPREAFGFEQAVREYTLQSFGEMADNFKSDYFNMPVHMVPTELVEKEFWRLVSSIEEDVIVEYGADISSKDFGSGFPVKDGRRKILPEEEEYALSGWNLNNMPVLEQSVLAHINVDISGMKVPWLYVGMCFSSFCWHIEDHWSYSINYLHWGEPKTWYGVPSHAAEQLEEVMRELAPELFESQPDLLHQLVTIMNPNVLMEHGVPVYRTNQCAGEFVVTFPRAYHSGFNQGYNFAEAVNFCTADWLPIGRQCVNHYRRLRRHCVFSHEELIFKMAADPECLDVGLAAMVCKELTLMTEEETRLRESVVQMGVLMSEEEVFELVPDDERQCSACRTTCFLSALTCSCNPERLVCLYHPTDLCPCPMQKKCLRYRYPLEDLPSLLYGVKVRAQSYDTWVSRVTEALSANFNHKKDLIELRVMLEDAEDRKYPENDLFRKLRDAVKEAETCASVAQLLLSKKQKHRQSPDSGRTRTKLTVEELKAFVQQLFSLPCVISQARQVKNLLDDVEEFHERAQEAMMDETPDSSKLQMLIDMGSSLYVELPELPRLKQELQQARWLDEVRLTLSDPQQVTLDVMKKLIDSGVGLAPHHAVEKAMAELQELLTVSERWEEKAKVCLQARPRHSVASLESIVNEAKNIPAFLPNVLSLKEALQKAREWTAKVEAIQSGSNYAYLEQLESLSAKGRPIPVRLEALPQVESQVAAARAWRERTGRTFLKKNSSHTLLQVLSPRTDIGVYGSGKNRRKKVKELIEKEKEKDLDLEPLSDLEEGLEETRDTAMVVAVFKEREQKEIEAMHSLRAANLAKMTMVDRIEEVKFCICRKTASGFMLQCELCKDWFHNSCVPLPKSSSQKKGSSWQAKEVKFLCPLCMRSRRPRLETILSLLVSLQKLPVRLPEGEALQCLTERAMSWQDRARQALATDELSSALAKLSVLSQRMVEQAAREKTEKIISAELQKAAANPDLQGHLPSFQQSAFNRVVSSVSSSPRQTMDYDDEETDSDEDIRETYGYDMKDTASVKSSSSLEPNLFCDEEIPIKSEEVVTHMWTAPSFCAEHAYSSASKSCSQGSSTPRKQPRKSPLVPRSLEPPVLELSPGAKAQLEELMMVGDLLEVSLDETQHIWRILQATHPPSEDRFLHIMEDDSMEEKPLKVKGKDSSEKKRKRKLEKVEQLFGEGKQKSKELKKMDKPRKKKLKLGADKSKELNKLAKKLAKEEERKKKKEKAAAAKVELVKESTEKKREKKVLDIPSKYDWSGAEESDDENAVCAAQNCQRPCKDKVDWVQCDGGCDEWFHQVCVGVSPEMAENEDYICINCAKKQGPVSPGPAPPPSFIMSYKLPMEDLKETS
UniProt Q14643, whole entry, looked up: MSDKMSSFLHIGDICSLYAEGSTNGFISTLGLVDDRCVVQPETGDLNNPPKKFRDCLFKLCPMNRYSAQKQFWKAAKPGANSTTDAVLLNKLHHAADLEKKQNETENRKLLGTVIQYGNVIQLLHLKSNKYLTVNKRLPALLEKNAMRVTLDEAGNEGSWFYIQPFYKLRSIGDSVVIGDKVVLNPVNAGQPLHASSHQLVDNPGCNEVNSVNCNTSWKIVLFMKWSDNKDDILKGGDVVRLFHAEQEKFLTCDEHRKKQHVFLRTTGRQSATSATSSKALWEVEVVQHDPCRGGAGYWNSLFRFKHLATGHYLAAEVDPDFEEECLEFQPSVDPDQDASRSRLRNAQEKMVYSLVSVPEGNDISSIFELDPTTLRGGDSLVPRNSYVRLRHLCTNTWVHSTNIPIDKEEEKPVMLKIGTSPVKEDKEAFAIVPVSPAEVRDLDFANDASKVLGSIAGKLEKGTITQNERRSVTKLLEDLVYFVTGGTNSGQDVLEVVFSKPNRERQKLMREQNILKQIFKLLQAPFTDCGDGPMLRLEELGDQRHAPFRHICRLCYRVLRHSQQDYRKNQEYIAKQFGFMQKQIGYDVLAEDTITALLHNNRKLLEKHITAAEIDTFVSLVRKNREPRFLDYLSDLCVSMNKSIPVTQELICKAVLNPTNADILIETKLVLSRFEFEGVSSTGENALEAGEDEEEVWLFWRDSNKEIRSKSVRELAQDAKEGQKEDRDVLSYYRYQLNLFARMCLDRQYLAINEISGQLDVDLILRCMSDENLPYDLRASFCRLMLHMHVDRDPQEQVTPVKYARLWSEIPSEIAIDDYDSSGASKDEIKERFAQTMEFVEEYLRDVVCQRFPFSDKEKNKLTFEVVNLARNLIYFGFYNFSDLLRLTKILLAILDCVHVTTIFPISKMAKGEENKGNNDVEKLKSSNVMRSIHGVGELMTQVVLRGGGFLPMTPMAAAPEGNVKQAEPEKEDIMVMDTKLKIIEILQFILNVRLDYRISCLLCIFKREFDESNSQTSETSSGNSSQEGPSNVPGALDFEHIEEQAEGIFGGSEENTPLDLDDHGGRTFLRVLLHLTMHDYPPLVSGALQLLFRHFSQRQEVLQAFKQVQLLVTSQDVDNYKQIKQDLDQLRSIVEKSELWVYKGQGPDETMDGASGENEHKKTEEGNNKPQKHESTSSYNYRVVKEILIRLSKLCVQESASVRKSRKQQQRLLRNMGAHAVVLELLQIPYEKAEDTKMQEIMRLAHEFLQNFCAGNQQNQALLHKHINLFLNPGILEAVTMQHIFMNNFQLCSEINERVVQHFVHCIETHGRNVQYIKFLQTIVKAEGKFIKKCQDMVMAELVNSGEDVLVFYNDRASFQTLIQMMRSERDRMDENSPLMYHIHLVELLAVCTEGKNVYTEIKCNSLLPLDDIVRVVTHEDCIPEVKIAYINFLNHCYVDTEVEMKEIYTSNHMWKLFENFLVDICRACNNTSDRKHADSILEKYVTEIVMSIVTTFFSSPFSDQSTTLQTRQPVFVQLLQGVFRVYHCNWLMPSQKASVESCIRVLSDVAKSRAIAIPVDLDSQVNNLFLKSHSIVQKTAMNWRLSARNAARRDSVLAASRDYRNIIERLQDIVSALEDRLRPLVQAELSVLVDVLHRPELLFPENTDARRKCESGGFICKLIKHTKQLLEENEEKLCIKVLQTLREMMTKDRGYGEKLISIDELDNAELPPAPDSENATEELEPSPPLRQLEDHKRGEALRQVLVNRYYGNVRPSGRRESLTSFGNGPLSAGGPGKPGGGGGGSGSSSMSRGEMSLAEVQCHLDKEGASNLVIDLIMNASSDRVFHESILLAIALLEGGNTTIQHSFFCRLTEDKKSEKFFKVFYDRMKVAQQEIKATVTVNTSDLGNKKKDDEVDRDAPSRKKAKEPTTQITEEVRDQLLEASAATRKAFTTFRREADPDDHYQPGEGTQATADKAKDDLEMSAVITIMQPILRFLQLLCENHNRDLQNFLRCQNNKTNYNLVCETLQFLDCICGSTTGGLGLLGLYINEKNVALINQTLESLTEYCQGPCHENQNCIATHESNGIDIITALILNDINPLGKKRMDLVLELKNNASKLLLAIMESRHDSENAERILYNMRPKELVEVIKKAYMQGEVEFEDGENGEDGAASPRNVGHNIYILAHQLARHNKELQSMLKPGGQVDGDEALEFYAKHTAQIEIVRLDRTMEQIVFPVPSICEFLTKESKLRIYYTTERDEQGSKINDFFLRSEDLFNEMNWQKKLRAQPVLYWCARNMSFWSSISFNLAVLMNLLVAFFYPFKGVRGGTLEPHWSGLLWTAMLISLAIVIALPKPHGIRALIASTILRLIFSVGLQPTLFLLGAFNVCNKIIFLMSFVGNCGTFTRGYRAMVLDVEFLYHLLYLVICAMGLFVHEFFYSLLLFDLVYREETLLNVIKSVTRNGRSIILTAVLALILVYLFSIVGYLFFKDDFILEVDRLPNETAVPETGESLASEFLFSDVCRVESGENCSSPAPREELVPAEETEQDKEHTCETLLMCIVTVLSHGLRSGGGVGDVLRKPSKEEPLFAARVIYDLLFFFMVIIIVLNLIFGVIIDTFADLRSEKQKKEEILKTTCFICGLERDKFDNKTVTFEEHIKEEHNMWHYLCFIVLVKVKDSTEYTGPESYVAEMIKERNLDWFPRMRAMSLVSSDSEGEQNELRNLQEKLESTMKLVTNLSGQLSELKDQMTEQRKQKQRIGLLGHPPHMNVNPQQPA
UniProt Q8TAC2: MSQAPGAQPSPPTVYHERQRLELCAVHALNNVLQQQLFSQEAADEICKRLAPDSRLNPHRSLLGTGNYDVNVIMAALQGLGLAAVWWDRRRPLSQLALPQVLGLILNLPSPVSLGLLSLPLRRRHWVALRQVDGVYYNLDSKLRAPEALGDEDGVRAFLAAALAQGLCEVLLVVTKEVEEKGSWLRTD
UniProt Q14145, whole entry, looked up: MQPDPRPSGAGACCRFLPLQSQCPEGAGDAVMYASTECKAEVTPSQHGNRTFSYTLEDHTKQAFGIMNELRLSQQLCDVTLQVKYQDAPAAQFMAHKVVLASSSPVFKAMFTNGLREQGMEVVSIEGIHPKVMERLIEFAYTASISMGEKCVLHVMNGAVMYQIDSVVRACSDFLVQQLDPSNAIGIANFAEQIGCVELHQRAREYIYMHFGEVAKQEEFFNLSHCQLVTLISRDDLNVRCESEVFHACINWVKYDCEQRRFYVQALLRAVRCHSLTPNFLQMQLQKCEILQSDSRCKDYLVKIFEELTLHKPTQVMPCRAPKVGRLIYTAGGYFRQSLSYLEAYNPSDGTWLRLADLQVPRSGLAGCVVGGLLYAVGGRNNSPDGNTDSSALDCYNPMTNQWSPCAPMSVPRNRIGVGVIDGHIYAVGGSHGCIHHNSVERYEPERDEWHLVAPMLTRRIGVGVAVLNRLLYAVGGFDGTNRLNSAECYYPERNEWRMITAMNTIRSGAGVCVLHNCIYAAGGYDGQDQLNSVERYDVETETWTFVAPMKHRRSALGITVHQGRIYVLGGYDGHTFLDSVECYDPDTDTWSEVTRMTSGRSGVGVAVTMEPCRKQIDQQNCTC

The results in this text go back to the supplement of paper PMC12067093, “Discovery and optimisation of a covalent ligand for TRIM25 and its application to targeted protein ubiquitination” (Chemical Science, 2025).

Compound in this test: Cc1cc(ccc1-c1ccccc1)C(=O)N1CCCN(CC1)C(=O)CCl [compound 10]
The experiment in a line: probe-labelled cysteine peptide fold change vs DMSO (competition) (log2 fold change); higher = less target engagement (more negative = stronger competition). The conditions noted are these: THP-1, incubation time: 4 h.
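Note: competitive profiling in live THP-1 cells: cysteine peptides tagged with an iodoacetamide desthiobiotin (IA-DTB) probe, intensity after compound treatment relative to DMSO-treated cells.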

Take “KIDINS220_Q9ULH0_779_LVVIIDGLDACEQDK (UniProt Q9ULH0)”: the “probe-labelled cysteine peptide fold change” value is, setting by setting: (10 µM) -0.272; (50 µM) -0.123.
Consider “JMY_Q8N9B5_721_GAASPVLQEDHCDSLPSVLQVEEK (UniProt Q8N9B5)”, for which the “probe-labelled cysteine peptide fold change” value (10 µM) is -0.183 and the “probe-labelled cysteine peptide fold change” value (50 µM) was determined as 0.0881.
The corresponding values for “IVD_P26440_261_GSNTCELIFEDCKIPAANILGHENK (UniProt P26440)” are 0.0089 and -0.169.
The corresponding values for “KATNB1_Q9BVA0_579_YESYVQTGCTSLK (UniProt Q9BVA0)” are -0.0669 and 0.238.
Regarding “KCMF1_Q9P0J7_54_HTTDHPMQCILTR (UniProt Q9P0J7)”, the “probe-labelled cysteine peptide fold change” value is 0.166 (10 µM) and -0.0382 (50 µM).
Taken in the same sequence, the figures for “KDM5B_Q9UGL1_1072_ECAVNTFLTENSPYSLLEVLCPR (UniProt Q9UGL1)” were 0.544 and 0.17.
Taken in the same sequence, the figures for “KAT7_O95251_474_NSFLNYNVSCILTMPQYMR (UniProt O95251)” were 0.152 and 0.309.
The corresponding values for “KIDINS220_Q9ULH0_747_CEVELMAR (UniProt Q9ULH0)” are 0.0595 and -0.107.
With “JMJD6_Q6NYC1_207_RWCLFPTSTPR (UniProt Q6NYC1)”, the “probe-labelled cysteine peptide fold change” value by setting is: (10 µM) -0.0774; (50 µM) 0.248.
As to “KDM2A_Q9Y2K7_463_CLVDKLESLPLHK (UniProt Q9Y2K7)”, the “probe-labelled cysteine peptide fold change” value is -0.0991 (10 µM) and -0.31 (50 µM).
With “KANK1_Q14678_907_ITGNYLGYTCK (UniProt Q14678)”, the “probe-labelled cysteine peptide fold change” value reads like this: (10 µM) 0.164; (50 µM) -0.317.
For the target “KBTBD11_O94819_99_ACPEEPAAPSPEPR (UniProt O94819)”, the “probe-labelled cysteine peptide fold change” value (10 µM) was -0.122 and the “probe-labelled cysteine peptide fold change” value (50 µM) was 0.114.
As for “KDM3B_Q7LBC6_1386_EMVMGLNVLDPHTSHSWLCDGR (UniProt Q7LBC6)”, the “probe-labelled cysteine peptide fold change” value by setting is: (10 µM) 0.0519; (50 µM) -0.155.
Taken in the same sequence, the figures for “KBTBD11_O94819_384_PSDQVFCYNPATDSWSAVRPLR (UniProt O94819)” were 0.185 and 0.261.
The corresponding values for “KIDINS220_Q9ULH0_867_FLVTSATNGDVPCSDTTGIQEDADRR (UniProt Q9ULH0)” are -0.0872 and -0.0611.
Taken in the same sequence, the figures for “KDM5A_P29375_838_AFVQQLFSLPCVISQAR (UniProt P29375)” were -0.502 and -0.298.
Consider “KANK1_Q14678_589_SVEMCDK (UniProt Q14678)”, for which the “probe-labelled cysteine peptide fold change” value runs as follows: (10 µM) 0.0398; (50 µM) 0.202.
Regarding “IVNS1ABP_Q9Y6Y0_454_CNAGVCALNGK (UniProt Q9Y6Y0)”, the “probe-labelled cysteine peptide fold change” value by setting is: (10 µM) -0.193; (50 µM) -0.382.
The corresponding values for “KDM3B_Q7LBC6_295_SASDSGCDPASKK (UniProt Q7LBC6)” are -0.136 and -0.93.
Taken in the same sequence, the figures for “KIF20A_O95235_487_SCMIVNVNPCASTYDETLHVAK (UniProt O95235)” were 0.182 and 0.175.
Taken in the same sequence, the figures for “KDM2B_Q8NHM5_1278_DSLTEINLSDCNK (UniProt Q8NHM5)” were 0.0712 and 0.0647.
On to “KDM4A_O75164_847_TAGCCVQCSHGR (UniProt O75164)”, for which the “probe-labelled cysteine peptide fold change” value is -0.101 (10 µM) and -0.0403 (50 µM).
Take “KDM1A_O60341_491_DLTALCK (UniProt O60341)”: the “probe-labelled cysteine peptide fold change” value stood at 0.0807 (10 µM) and 0.00467 (50 µM).
The corresponding values for “KDM3B_Q7LBC6_1212_AIRPPCPDTAPPSSALHWLADLATQK (UniProt Q7LBC6)” are -0.176 and -0.341.
Consider “KDM2B_Q8NHM5_991_RPPGICERPHR (UniProt Q8NHM5)”, for which the “probe-labelled cysteine peptide fold change” value (10 µM) is -0.279 and the “probe-labelled cysteine peptide fold change” value (50 µM) was -0.172.
As to “KDM3B_Q7LBC6_904_QSGEPFLQDGSCINVAPHLHK (UniProt Q7LBC6)”, the “probe-labelled cysteine peptide fold change” value (10 µM) came out at 0.0265 and the “probe-labelled cysteine peptide fold change” value (50 µM) is -0.103.
Taken in the same sequence, the figures for “KCNAB2_Q13303_212_QFNLTPPICEQAEYHMFQR (UniProt Q13303)” were -0.0555 and 0.0233.
As for “ITPR3_Q14573_2455_ACDTLLMCIVTVMNHGLR (UniProt Q14573)”, the “probe-labelled cysteine peptide fold change” value is, setting by setting: (10 µM) 0.317; (50 µM) 0.38.
Turning to “KIAA0100_Q14667_1055_LVGTEQSGQPCSR (UniProt Q14667)”, the “probe-labelled cysteine peptide fold change” value is -0.0737 (10 µM) and -0.179 (50 µM).
The corresponding values for “KDM4A_O75164_533_DSISSDSETSEPLSCR (UniProt O75164)” are -0.287 and -0.622.
For “ITPR1_Q14643_1471_ACNNTSDR (UniProt Q14643)”, the “probe-labelled cysteine peptide fold change” value (10 µM) was found to be 0.656 and the “probe-labelled cysteine peptide fold change” value (50 µM) is 0.625.
Taken in the same sequence, the figures for “KANSL1_Q7Z3B3_664_LSQLDSCVHPVLAFPDDVPTSLHFQSMLK (UniProt Q7Z3B3)” were 0.225 and -0.101.
Consider “JAK1_P23458_716_DLVHGNVCTK (UniProt P23458)”, for which the “probe-labelled cysteine peptide fold change” value by setting is: (10 µM) -0.1; (50 µM) -0.321.
The corresponding values for “KBTBD11_O94819_257_DAAYCFMSDHYLEVLREPAVFGR (UniProt O94819)” are 0.122 and -0.103.
Take “KHNYN_O15037_245_ESLDTGSMGPGDCR (UniProt O15037)”: the “probe-labelled cysteine peptide fold change” value is, setting by setting: (10 µM) -0.26; (50 µM) -0.469.
The corresponding values for “ITPR1_Q14643_1197_LCVQESASVR (UniProt Q14643)” are 0.236 and 0.11.
As to “JOSD2_Q8TAC2_24_LELCAVHALNNVLQQQLFSQEAADEICKR (UniProt Q8TAC2)”, the “probe-labelled cysteine peptide fold change” value was 0.0239 (10 µM) and -0.878 (50 µM).
The corresponding values for “KATNA1_O75449_491_WIFEFGSC (UniProt O75449)” are -0.176 and 0.0599.
Consider “KIDINS220_Q9ULH0_1250_VLAQCNIDELKK (UniProt Q9ULH0)”, for which the “probe-labelled cysteine peptide fold change” value by setting is: (10 µM) 0.165; (50 µM) 0.176.
Taken in the same sequence, the figures for “KAT2A_Q92830_695_KVYPGLSCFK (UniProt Q92830)” were -0.275 and -0.87.
The corresponding values for “KIF13B_Q9NQT8_26_CVVDVDANK (UniProt Q9NQT8)” are -0.0801 and -0.119.
As to “KAT7_O95251_418_IYCQNLCLLAK (UniProt O95251)”, the “probe-labelled cysteine peptide fold change” value by setting is: (10 µM) 0.0698; (50 µM) 0.106.
Taken in the same sequence, the figures for “KDM5C_P41229_825_NCLSEAEACVSR (UniProt P41229)” were 0.00425 and -0.074.
As to “KDM3B_Q7LBC6_1470_VRDFWDGFEIICK (UniProt Q7LBC6)”, the “probe-labelled cysteine peptide fold change” value is 0.00404 (10 µM) and -0.492 (50 µM).
On to “KATNBL1_Q9H079_106_ENELACAGHLPEK (UniProt Q9H079)”, for which the “probe-labelled cysteine peptide fold change” value by setting is: (10 µM) -0.285; (50 µM) -0.337.
The corresponding values for “KANSL2_Q9H9L4_88_DGVSFCAEHVR (UniProt Q9H9L4)” are 0.0254 and 0.0649.
The corresponding values for “KIF15_Q9NS87_1284_EMECLR (UniProt Q9NS87)” are 0.0325 and 0.0108.
Taken in the same sequence, the figures for “KDM1A_O60341_618+623_CDAVLCTLPLGVLK (UniProt O60341)” were 0.15 and 0.245.
“KEAP1_Q14145_273_CHSLTPNFLQMQLQK (UniProt Q14145)”: the “probe-labelled cysteine peptide fold change” value is, setting by setting: (10 µM) -0.0118; (50 µM) -0.0914.
The corresponding values for “KIF1C_O43896_685_SCEESWR (UniProt O43896)” are -0.312 and -0.0529.
Regarding “ITPRID2_P28290_887_TLSTHSVPNISGATCSAFASPFGCPYSHR (UniProt P28290)”, the “probe-labelled cysteine peptide fold change” value was -0.187 (10 µM) and -0.948 (50 µM).
Taken in the same sequence, the figures for “IVD_P26440_254+261_GSNTCELIFEDCK (UniProt P26440)” were 0.136 and 0.318.
Taken in the same sequence, the figures for “KIF20B_Q96Q89_1642_HPGCTTPVTVK (UniProt Q96Q89)” were -0.0176 and 0.000338.
Taken in the same sequence, the figures for “KDM2A_Q9Y2K7_913_ELCECMR (UniProt Q9Y2K7)” were 0.0854 and 0.0749.
Turning to “IVD_P26440_254_GSNTCELIFEDCK (UniProt P26440)”, the “probe-labelled cysteine peptide fold change” value runs as follows: (10 µM) 0.152; (50 µM) 0.605.
For the target “IVNS1ABP_Q9Y6Y0_495_LWTSCAPLNIR (UniProt Q9Y6Y0)”, the “probe-labelled cysteine peptide fold change” value is 0.117 (10 µM) and -0.21 (50 µM).
In the case of “KIF15_Q9NS87_1062_ILSEDIERDMLCEDLAHATEQLNMLTEASK (UniProt Q9NS87)”, the “probe-labelled cysteine peptide fold change” value (10 µM) is 0.00745 and the “probe-labelled cysteine peptide fold change” value (50 µM) is -0.085.
The corresponding values for “IVD_P26440_355_ACDEGHCTAK (UniProt P26440)” are 0.0649 and 0.00421.
Take “IVNS1ABP_Q9Y6Y0_387_TVECYNPHTDHWSFLAPMR (UniProt Q9Y6Y0)”: the “probe-labelled cysteine peptide fold change” value was -0.13 (10 µM) and -0.0514 (50 µM).
On to “KDM5A_P29375_709_LVCLYHPTDLCPCPMQK (UniProt P29375)”, for which the “probe-labelled cysteine peptide fold change” value is, setting by setting: (10 µM) 0.0981; (50 µM) -0.145.
The corresponding values for “KBTBD11_O94819_455_GAFAVAHEATTCHGEIYVSGGSLFYR (UniProt O94819)” are -0.0464 and 0.164.
Turning to “JMJD1C_Q15652_1871_CGFVVCLDCYK (UniProt Q15652)”, the “probe-labelled cysteine peptide fold change” value (10 µM) came to 0.149 and the “probe-labelled cysteine peptide fold change” value (50 µM) was 0.209.
On to “JUP_P14923_457_AGDKDDITEPAVCALR (UniProt P14923)”, for which the “probe-labelled cysteine peptide fold change” value is -0.117 (10 µM) and 0.0142 (50 µM).
Regarding “KIF1B_O60333_581_EEHCIFR (UniProt O60333)”, the “probe-labelled cysteine peptide fold change” value was 0.279 (10 µM) and 0.225 (50 µM).
Taken in the same sequence, the figures for “KHSRP_Q92945_436_CGLVIGR (UniProt Q92945)” were 0.173 and -0.213.
Taken in the same sequence, the figures for “KEAP1_Q14145_624_QIDQQNCTC (UniProt Q14145)” were -0.465 and -0.267.
Regarding “KIF13B_Q9NQT8_870_LVCMVK (UniProt Q9NQT8)”, the “probe-labelled cysteine peptide fold change” value turned out to be 0.159 (10 µM) and 0.257 (50 µM).
Taken in the same sequence, the figures for “ITPR1_Q14643_292_ALWEVEVVQHDPCR (UniProt Q14643)” were -0.0376 and 0.104.
Taken in the same sequence, the figures for “ITPR1_Q14643_2536_EHTCETLLMCIVTVLSHGLR (UniProt Q14643)” were 0.0218 and 0.145.
The corresponding values for “KHSRP_Q92945_176_IQQDSGCK (UniProt Q92945)” are 0.238 and 0.0223.
